Experimental data taken from paper PMC10874017.
These are yes or no findings as the source states them, for the method shown. In cells and extracts the contact can be indirect. Some binding calls cover weakened binding; strength is not graded here.

T1: SHC SH2 domain-binding protein 1 (SHCBP1) (human (endogenous in tumour cell lines; line not named)) (UniProt Q8NEM2)
T1 sequence: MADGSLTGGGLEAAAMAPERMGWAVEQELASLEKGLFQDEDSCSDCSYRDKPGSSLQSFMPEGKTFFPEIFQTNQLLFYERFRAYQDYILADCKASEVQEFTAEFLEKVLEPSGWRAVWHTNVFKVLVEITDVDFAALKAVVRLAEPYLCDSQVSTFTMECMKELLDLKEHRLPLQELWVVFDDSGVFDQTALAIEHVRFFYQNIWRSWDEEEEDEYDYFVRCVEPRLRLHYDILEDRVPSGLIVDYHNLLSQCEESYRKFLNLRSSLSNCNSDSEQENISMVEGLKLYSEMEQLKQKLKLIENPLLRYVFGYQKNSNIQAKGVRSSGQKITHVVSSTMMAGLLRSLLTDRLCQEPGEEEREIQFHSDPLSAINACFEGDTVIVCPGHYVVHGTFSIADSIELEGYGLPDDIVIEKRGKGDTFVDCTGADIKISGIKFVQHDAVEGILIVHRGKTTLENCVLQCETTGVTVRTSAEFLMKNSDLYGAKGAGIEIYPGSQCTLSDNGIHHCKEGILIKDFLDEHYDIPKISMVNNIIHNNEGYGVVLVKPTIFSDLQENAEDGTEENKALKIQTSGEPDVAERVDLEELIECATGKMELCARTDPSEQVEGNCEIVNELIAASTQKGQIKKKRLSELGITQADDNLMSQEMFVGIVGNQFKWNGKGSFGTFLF

B1: RACGAP1 (protein, UniProt Q9H0H5 1-632)
chain: MDTMMLNVRNLFEQLVRRVEILSEGNEVQFIQLAKDFEDFRKKWQRTDHELGKYKDLLMKAETERSALDVKLKHARNQVDVEIKRRQRAEADCEKLERQIQLIREMLMCDTSGSIQLSEEQKSALAFLNRGQPSSSNAGNKRLSTIDESGSILSDISFDKTDESLDWDSSLVKTFKLKKREKRRSTSRQFVDGPPGPVKKTRSIGSAVDQGNESIVAKTTVTVPNDGGPIEAVSTIETVPYWTRSRRKTGTLQPWNSDSTLNSRQLEPRTETDSVGTPQSNGGMRLHDFVSKTVIKPESCVPCGKRIKFGKLSLKCRDCRVVSHPECRDRCPLPCIPTLIGTPVKIGEGMLADFVSQTSPMIPSIVVHCVNEIEQRGLTETGLYRISGCDRTVKELKEKFLRVKTVPLLSKVDDIHAICSLLKDFLRNLKEPLLTFRLNRAFMEAAEITDEDNSIAAMYQAVGELPQANRDTLAFLMIHLQRVAQSPHTKMDVANLAKVFGPTIVAHAVPNPDPVTMLQDIKRQPKVVERLLSLPLEYWSQFMMVEQENIDPLHVIENSNAFSTPQTPDIKVSLLGPVTTPEHQLLKTPSSSSLSQRVRSTLTKNTPRFGSKSKSATNLGRQGNFFASPMLK
B2: MKLP1 (protein, UniProt Q02241 1-960)
chain: MKSARAKTPRKPTVKKGSQTNLKDPVGVYCRVRPLGFPDQECCIEVINNTTVQLHTPEGYRLNRNGDYKETQYSFKQVFGTHTTQKELFDVVANPLVNDLIHGKNGLLFTYGVTGSGKTHTMTGSPGEGGLLPRCLDMIFNSIGSFQAKRYVFKSNDRNSMDIQCEVDALLERQKREAMPNPKTSSSKRQVDPEFADMITVQEFCKAEEVDEDSVYGVFVSYIEIYNNYIYDLLEEVPFDPIKPKPPQSKLLREDKNHNMYVAGCTEVEVKSTEEAFEVFWRGQKKRRIANTHLNRESSRSHSVFNIKLVQAPLDADGDNVLQEKEQITISQLSLVDLAGSERTNRTRAEGNRLREAGNINQSLMTLRTCMDVLRENQMYGTNKMVPYRDSKLTHLFKNYFDGEGKVRMIVCVNPKAEDYEENLQVMRFAEVTQEVEVARPVDKAICGLTPGRRYRNQPRGPVGNEPLVTDVVLQSFPPLPSCEILDINDEQTLPRLIEALEKRHNLRQMMIDEFNKQSNAFKALLQEFDNAVLSKENHMQGKLNEKEKMISGQKLEIERLEKKNKTLEYKIEILEKTTTIYEEDKRNLQQELETQNQKLQRQFSDKRRLEARLQGMVTETTMKWEKECERRVAAKQLEMQNKLWVKDEKLKQLKAIVTEPKTEKPERPSRERDREKVTQRSVSPSPVPLSSNYIAQISNGQQLMSQPQLHRRSNSCSSISVASCISEWEQKIPTYNTPLKVTSIARRRQQEPGQSKTCIVSDRRRGMYWTEGREVVPTFRNEIEIEEDHCGRLLFQPDQNAPPIRLRHRRSRSAGDRWVDHKPASNMQTETVMQPHVPHAITVSVANEKALAKCEKYMLTHQELASDGEIETKLIKGDIYKTRGGGQSVQFTDIETLKQESPNGSRKRRSSTVAPAQPDGAESEWTDVETRCSVAVEMRAGSQLGPGYQHHAQPKRKKP

Target: T1, SHC SH2 domain-binding protein 1 (SHCBP1) (human (endogenous in tumour cell lines; line not named))
Assay: co-IP; endogenous proteins; asynchronous tumour cells lysed in NP-40 buffer with PMSF and protease inhibitors; 1 mg lysate protein with 30 ul protein A/G agarose beads and 5 ug primary antibody overnight at 4 °C; western blotting

| Binder | binding |
| --- | --- |
| B1 | binds |
| B2 | binds |
